We go through 61 compounds from patent publication US11427783B2, “Perfuming compositions” (Firmenich SA, priority 2016, dated 2022).

Counter-ions that a name gives are not always drawn.

The data set can be described thus: Odor threshold of perfuming compounds in air.
[1] abbreviates: Table 10, perfuming compounds having a woody note.
Where [2] appears, read: Table 6, perfuming compounds having a fruity note.
[3] abbreviates: perfuming compounds having a fruity note (Table 6).
[4] abbreviates: Table 5, perfuming compounds having a green note.
Where [5] appears, read: Table 8, perfuming compounds having a sweet note.
Where [6] appears, read: Table 9, perfuming compounds having a gourmand note.

On to `CCCCCC1C(=O)CCC1CC(=O)OC` (single isomer, unassigned; (+)), for which, under setting [1], the “Odor Threshold (μg/l air)” value is listed as 2.82E−04 μg/l air.

As for `CCC(=O)OCC(C)(C)OC(C)C1CCCC(C)(C)C1` (single isomer, unassigned; (+)), under setting [2], the “Odor Threshold (μg/l air)” value worked out at 3.69E−04 μg/l air.

In the case of `C=C(C)C1CC=C(C)CC1` (single isomer, unassigned; (+)) [(+)-LIMONENE], the “Odor Threshold” value under setting [3] was determined as 1.29E−01 μg/l air.

In the case of `COC(OC)C(C)c1ccccc1` (stereo not shown) [1,1-DIMETHOXY-2-PHENYLPROPANE], the “Odor Threshold” value under setting [4] is given as 1.42E−02 μg/l air.

On to `CC(=O)OC(C)(C)Cc1ccccc1` [1,1-DIMETHYL-2-PHENYLETHYL ACETATE], for which the “Odor Threshold” value under setting [3] is recorded as 5.16E−02 μg/l air.

`CCCC(=O)OC(C)(C)Cc1ccccc1` [1,1-DIMETHYL-2-PHENYLETHYL BUTANOATE]: the “Odor Threshold (μg/l air)” value is recorded as 2.68E−02 μg/l air under setting [2], 2.68E−02 μg/l air under setting [5] and 2.68E−02 μg/l air under setting [6].

As for `O=C1CCCCCCCCCCC(=O)OCCO1` [1,4-dioxacyclohexadecane-5,16-dione], the “Odor Threshold (μg/l air)” value under setting [5] came to 7.05E−04 μg/l air.

As to `CC(=O)OC(C)CCC=C(C)CCC=C(C)C` (stereo not shown) [1,5,9-TRIMETHYL-4,8-DECADIENYL ACETATE], the “Odor Threshold (μg/l air)” value under setting [2] is listed as 3.28E−04 μg/l air.

Consider `CC(OC=O)C1CCCC(C)(C)C1` (stereo not shown) [1-(3,3-DIMETHYL-1-CYCLOHEXYL)ETHYL FORMATE], for which, under setting [3], the “Odor Threshold” value came to 2.05E−01 μg/l air.

In the case of `COc1ccc(C(C)=O)cc1` [1-(4-METHOXYPHENYL)-1-ETHANONE”], the “Odor Threshold” value under setting [4] was 1.41E−04 μg/l air.

As for `C=CCCC(=O)C1=CCCC(C)(C)C1` [1-(5,5-dimethyl-1-cyclohexen-1-yl)-4-penten-1-one], the “Odor Threshold” value under setting [4] was found to be 1.64E−06 μg/l air. Moreover, the “Odor Threshold (μg/l air)” value under setting [2] is on record as 1.64E−06 μg/l air.

As to `CCCCO` [1-BUTANOL], the “Odor Threshold” value under setting [4] was 8.70E−02 μg/l air. Further, the “Odor Threshold (μg/l air)” value by setting is: under setting [5], 8.70E−02 μg/l air; under setting [6], 8.70E−02 μg/l air; under setting [1], 8.70E−02 μg/l air.

As to `CCCCCCCCCCO` [1-DECANOL], under setting [4], the “Odor Threshold” value is listed as 1.13E−02 μg/l air.

With `CC(=O)OC(CC(C)C)CC(C)C` [1-ISOBUTYL-3-METHYLBUTYL ACETATE], the “Odor Threshold” value reads like this: under setting [4], 1.62E+00 μg/l air; under setting [3], 1.62E+00 μg/l air.

Take `CCCc1ccc(OC)cc1` [1-METHOXY-4-PROPYLBENZENE]: the “Odor Threshold” value under setting [3] turned out to be 5.37E−04 μg/l air.

`CC(O)c1ccccc1` (stereo not shown) [1-PHENYL-1-ETHANOL]: the “Odor Threshold” value under setting [3] is reported as 2.98E−01 μg/l air.

Consider `CCCOC(C)OCCc1ccccc1` (stereo not shown) [1-PHENYL-2-(1-PROPOXYETHOXY)ETHANE], for which the “Odor Threshold” value under setting [4] is recorded as 1.52E−03 μg/l air.

With `CCCCCCO` [1-hexanol], the “Odor Threshold” value under setting [4] is 1.17E−01 μg/l air.

In the case of `C/C=C/c1ccc(OC)cc1` [1-methoxy-4-[(1E)-1-propen-1-yl]benzene], the “Odor Threshold (μg/l air)” value by setting is: under setting [5], 1.23E−03 μg/l air; under setting [6], 1.23E−03 μg/l air. In addition, under setting [3], the “Odor Threshold” value was found to be 1.23E−03 μg/l air.

`O=C1CCC2(CCCCC2)O1` [1-oxaspiro[4.5]decan-2-one]: the “Odor Threshold (μg/l air)” value under setting [6] stood at 2.90E−04 μg/l air.

As for `CC(=O)c1ccccc1` [1-phenylethanone], the “Odor Threshold (μg/l air)” value under setting [5] is on record as 6.61E−03 μg/l air.

In the case of `Cc1cnc(C)c(C)n1` [2,3,5-TRIMETHYLPYRAZINE], the “Odor Threshold (μg/l air)” value under setting [5] came out at 2.82E−04 μg/l air.

As for `COc1cccc(OC)c1O` [2,6-DIMETHOXYPHENOL], the “Odor Threshold (μg/l air)” value turned out to be 8.01E−06 μg/l air under setting [5] and 8.01E−06 μg/l air under setting [6].

As for `c1ccc(CCCc2ccccn2)cc1` [2-(3-PHENYLPROPYL)PYRIDINE], the “Odor Threshold” value under setting [4] came out at 1.29E−06 μg/l air.

For the compound `Cc1ncsc1CCO` [2-(4-METHYL-1,3-THIAZOL-5-YL)-1-ETHANOL], the “Odor Threshold (μg/l air)” value under setting [5] is recorded as 2.43E−04 μg/l air.

On to `O=c1ccc2ccccc2o1` [2-CHROMENONE], for which the “Odor Threshold (μg/l air)” value is reported as 1.62E−05 μg/l air under setting [5] and 1.62E−05 μg/l air under setting [6].

For `CC(=O)OCCC1CCCCC1` [2-CYCLOHEXYL ETHYL ACETATE], under setting [3], the “Odor Threshold” value is 4.49E−02 μg/l air.

Take `CC(=O)OCCC1CCCCC1` [2-CYCLOHEXYLETHYL ACETATE]: the “Odor Threshold (μg/l air)” value came to 4.49E−02 μg/l air under setting [5] and 4.49E−02 μg/l air under setting [6].

Take `CCc1occc(=O)c1O` [2-ETHYL-3-HYDROXY-4(4H)-PYRANONE]: the “Odor Threshold (μg/l air)” value came out at 6.45E−05 μg/l air under setting [2] and 6.45E−05 μg/l air under setting [5].

Regarding `SCc1ccco1` [2-FURANMETHANETHIOL], the “Odor Threshold (μg/l air)” value under setting [5] is recorded as 1.43E−09 μg/l air.

In the case of `CCCCCC(C)=O` [2-HEPTANONE], the “Odor Threshold” value under setting [3] was 5.85E−02 μg/l air.

In the case of `CC1=C(O)C(=O)CC1` [2-HYDROXY-3-METHYL-2-CYCLOPENTEN-1-ONE], the “Odor Threshold (μg/l air)” value under setting [5] is on record as 3.82E−04 μg/l air.

As to `CC(C)Cc1ccc2ccccc2n1` [2-ISOBUTYLQUINOLINE], under setting [5], the “Odor Threshold (μg/l air)” value is given as 1.93E−04 μg/l air.

With `COc1cc(C)ccc1O` [2-METHOXY-4-METHYLPHENOL], the “Odor Threshold (μg/l air)” value under setting [5] turned out to be 6.96E−04 μg/l air.

Regarding `CCCC1CCC(O)C(OC)C1` (stereo not shown) [2-METHOXY-4-PROPYL-1-CYCLOHEXANOL], under setting [4], the “Odor Threshold” value was determined as 2.85E−02 μg/l air.

`COc1ccc2ccccc2c1` [2-METHOXYNAPHTHALENE]: the “Odor Threshold (μg/l air)” value amounted to 1.02E−05 μg/l air under setting [5] and 1.02E−05 μg/l air under setting [6].

`CCCC(=NO)C(C)C` [2-METHYL-3-HEXANONE OXIME]: the “Odor Threshold” value under setting [4] turned out to be 4.81E−04 μg/l air.

As to `CCCC(C)COC(=O)C(C)CCC` (stereo not shown) [2-METHYLPENTYL 2-METHYLPENTANOATE], the “Odor Threshold” value came to 2.41E−01 μg/l air under setting [4] and 2.41E−01 μg/l air under setting [3].

On to `CCCCCCC(C)=O` [2-OCTANONE], for which, under setting [3], the “Odor Threshold” value is 5.37E−02 μg/l air.

In the case of `OCCc1ccccc1` [2-PHENYLETHANOL], the “Odor Threshold (μg/l air)” value is recorded as 1.02E−04 μg/l air under setting [5] and 1.02E−04 μg/l air under setting [6]. Under setting [3], the “Odor Threshold” value is on record as 1.02E−04 μg/l air.

For the compound `CC(=O)OCCc1ccccc1` [2-PHENYLETHYL ACETATE], the “Odor Threshold (μg/l air)” value under setting [5] came to 2.14E−03 μg/l air and the “Odor Threshold (μg/l air)” value under setting [6] is 2.14E−03 μg/l air. In addition, the “Odor Threshold” value under setting [3] came to 2.14E−03 μg/l air.

On to `O=COCCc1ccccc1` [2-PHENYLETHYL FORMATE], for which the “Odor Threshold” value is given as 8.34E−04 μg/l air under setting [4] and 8.34E−04 μg/l air under setting [3].

For `CC(C)C(=O)OCCc1ccccc1` [2-PHENYLETHYL ISOBUTYRATE], the “Odor Threshold (μg/l air)” value reads like this: under setting [2], 6.70E−03 μg/l air; under setting [5], 6.70E−03 μg/l air; under setting [6], 6.70E−03 μg/l air.

Regarding `O=C(Cc1ccccc1)OCCc1ccccc1` [2-PHENYLETHYL PHENYLACETATE], the “Odor Threshold (μg/l air)” value runs as follows: under setting [2], 9.08E−04 μg/l air; under setting [5], 9.08E−04 μg/l air; under setting [6], 9.08E−04 μg/l air.

As for `CC(C)(C)C(=O)OCCc1ccccc1` [2-PHENYLETHYL PIVALATE], the “Odor Threshold (μg/l air)” value is 3.85E−02 μg/l air under setting [2], 3.85E−02 μg/l air under setting [5] and 3.85E−02 μg/l air under setting [6].

On to `COc1ccc(OC)c(C(C)(C)C)c1` [2-TERT-BUTYL-1,4-DIMETHOXYBENZENE], for which the “Odor Threshold (μg/l air)” value under setting [1] is on record as 1.65E−02 μg/l air.

Turning to `C/C=C/c1ccc(O)c(OC)c1` [2-methoxy-4-[(1E)-1-propen-1-yl]phenol], the “Odor Threshold (μg/l air)” value worked out at 6.63E−06 μg/l air under setting [5] and 6.63E−06 μg/l air under setting [6].

As for `CC(C)C(=O)OCCOc1ccccc1` [2-phenoxyethyl 2-methylpropanoate], under setting [4], the “Odor Threshold” value is 3.01E−02 μg/l air. Besides, the “Odor Threshold (μg/l air)” value under setting [2] worked out at 3.01E−02 μg/l air.

With `CC(=O)OCCC(C)CC(C)(C)C` (stereo not shown) [3,5,5-TRIMETHYLHEXYL ACETATE], under setting [3], the “Odor Threshold” value was 1.28E+00 μg/l air.

As for `CC(=O)OCCC(C)CCC=C(C)C` (stereo not shown) [3,7-DIMETHYL-6-OCTENYL ACETATE], the “Odor Threshold (μg/l air)” value under setting [2] is recorded as 2.75E−02 μg/l air.

Take `CC(C)(C)Cc1cccnc1` [3-(2,2-DIMETHYLPROPYL)PYRIDINE]: the “Odor Threshold” value under setting [3] was determined as 2.82E−03 μg/l air.

For the compound `CCCC=C1OC(=O)c2ccccc21` [3-BUTYLIDENE-1-BENZO[C]FURANONE], the “Odor Threshold (μg/l air)” value under setting [5] was determined as 8.65E−04 μg/l air and the “Odor Threshold (μg/l air)” value under setting [6] is listed as 8.65E−04 μg/l air.

In the case of `Cc1occc(=O)c1O` [3-HYDROXY-2-METHYL-4(4H)-PYRANONE], the “Odor Threshold (μg/l air)” value by setting is: under setting [2], 4.17E−04 μg/l air; under setting [5], 4.17E−04 μg/l air.

Regarding `CC(C)CC(=O)O` [3-METHYLBUTANOIC ACID], the “Odor Threshold (μg/l air)” value under setting [1] came out at 2.23E−04 μg/l air. For the same compound, the “Odor Threshold” value under setting [3] is 2.23E−04 μg/l air.

On to `CC(C)CCOCCc1ccccc1` [3-METHYLBUTYL 2-PHENYLETHYL ETHER], for which the “Odor Threshold (μg/l air)” value by setting is: under setting [2], 1.38E−02 μg/l air; under setting [5], 1.38E−02 μg/l air; under setting [6], 1.38E−02 μg/l air.

On to `CCCCCC(=O)CC` [3-OCTANONE], for which the “Odor Threshold” value under setting [3] is listed as 4.53E−02 μg/l air.

Turning to `CC(=O)OCC=C(C)C` [3-methyl-2-buten-1-yl acetate], the “Odor Threshold” value runs as follows: under setting [4], 5.58E−02 μg/l air; under setting [3], 5.58E−02 μg/l air.

Consider `CC(C)(C)C1CCC(=O)CC1` [4-(2-methyl-2-propanyl)cyclohexanone], for which, under setting [1], the “Odor Threshold (μg/l air)” value turned out to be 1.15E−01 μg/l air.

In the case of `CC(=O)CCc1ccc(O)cc1` [4-(4-HYDROXY-1-PHENYL)-2-BUTANONE], the “Odor Threshold (μg/l air)” value under setting [2] was 2.05E−07 μg/l air.

For the compound `COc1ccc(CCC(C)=O)cc1` [4-(4-METHOXYPHENYL)-2-BUTANONE], the “Odor Threshold (μg/l air)” value turned out to be 5.88E−06 μg/l air under setting [2], 5.88E−06 μg/l air under setting [5] and 5.88E−06 μg/l air under setting [6].

In the case of `CC(C)(O)CCC1CCCCC1` [4-CYCLOHEXYL-2-METHYL-2-BUTANOL], the “Odor Threshold (μg/l air)” value under setting [2] is recorded as 2.83E−02 μg/l air.
